Assay results published in the supplement of paper PMC8104966.
“And” between values parts separate entries of the source, which are not always exact repeats. Equal entries are not always repeated. Some of the results follow. Repeats in this data set agree poorly, so a single value says little.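 U2OS cells expressing ACE2 were combined with U2OS cells expressing full-length spike, and imaging quantified fusion as the fraction of nuclei displaying both cell types' fluorescent markers. Non-toxic compounds with a fusion z-score under -3, i.e., over three standard deviations below the plate's DMSO wells, are called inhibitory hits.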

Test system: U2OS ACE2 x SARS-CoV-2 spike co-culture
Assay: cell-cell fusion (fraction fused) z-score vs plate DMSO control; higher = more fusion
Settings: 30 µM; 5 h; toxicity class: non-toxic, passed QC

| Compound | cell-cell fusion (z-score) |
| --- | --- |
| NC(=O)N[C@@H](CCC(=O)O)C(=O)O [Carbaglu] | inactive: 3.54 |
| COc1ccc2c(=O)c(CC(=O)O)coc2c1 | inactive: 1.84 |
| CC(N)=O [Acetamide] | inactive: 1.01 |
| N#C[C@@H]1C[C@@H]2C[C@@H]2N1C(=O)[C@@H](N)C12CC3CC(CC(O)(C3)C1)C2.O [Saxagliptin hydrate] | inactive: 2.77 |
| COc1cccc(-c2cc(=O)c3ccccc3o2)c1N | inactive: -0.124 |
| Cl.Clc1ccc(CCCOCCCN2CCCCC2)cc1 [Pitolisant hydrochloride] | inactive: 0.685 |
| CC(=O)OCC(CCn1cnc2cnc(N)nc21)COC(C)=O | inactive: 3.08 |
| CC(=O)OCC(CCn1cnc2cnc(N)nc21)COC(C)=O [Famciclovir] | inactive: 2.42 |
| O=C1CCC(N2C(=O)c3ccccc3C2=O)C(=O)N1 (stereo not given) [Thalidomide] | inactive: 2.24 |
| Cc1cnc(NC(=O)C2=C([O][Na])c3ccccc3S(=O)(=O)N2C)s1 [Meloxicam sodium] | inactive: 3.06 |
| COC(=O)[C@@H]1[C@H]2C[C@H]3c4[nH]c5ccccc5c4CCN3C[C@@H]2CC[C@@H]1O.Cl [Yohimbine hydrochloride] | inactive: 1.65 |
| CP(=O)([O-])C1=CC[NH2+]CC1 | inactive: 0.219 |
| O=C([O-])C[C@H](O)C[C@H](O)/C=C/c1c(C2CC2)nc2ccccc2c1-c1ccc(F)cc1.[Ca+2] | inactive: 4.11 |
| CCCn1c(=O)[nH]c(=O)c2[nH]cnc21 [3-n-Propylxanthine] | inactive: 2.4 |
| Cc1ccc(C(=O)Nc2ccc(CN3CCN(C)CC3)c(C(F)(F)F)c2)cc1C#Cc1cnc2cccnn12 | inactive: 1.89 |
| CCCCCCOC(=O)NC(=N)c1ccc(NCc2nc3cc(C(=O)N(CCC(=O)OCC)c4ccccn4)ccc3n2C)cc1 [Dabigatran etexilate] | inactive: -1.51 |
| CN(C)[C@@H]1C(O)=C(C(N)=O)C(=O)[C@@]2(O)C(O)=C3C(=O)c4c(O)cccc4[C@@](C)(O)[C@H]3[C@H](O)[C@@H]12 [Oxytetracycline] | inactive: 3.66 |
| Cc1cc(C(C)(C)C)c(O)c(C)c1CC1=NCCN1.Cl [Oxymetazoline hydrochloride] | inactive: 2.34 |
| O=C(NCO)c1cccnc1 | inactive: 1.93 |
| FC(F)(Cl)C(F)(F)Cl | inactive: 0.277 |
| OCC1O[C@H](O)C(Cl)C(O)C1O (stereo partly drawn) [2-Chloro-2-deoxy-D-glucose] | inactive: 3.29 |
| N#CC(C#N)=C(N)/C(C#N)=C/c1ccc(O)cc1 [Tyrphostin AG 112] | inactive: 3.39 |
| O=C1c2ccccc2C(=O)C1c1ccccc1 [Phenylindione] | inactive: 2.43 |
| Cc1cc2c(s1)Nc1ccccc1N=C2N1CCN(C)CC1 [Olanzapine] | inactive: 2.72 |
| C=C(C)[C@@H]1[C@H]2OC(=O)[C@@H]1[C@]1(O)C[C@H]3O[C@]34C(=O)O[C@H]2[C@]14C.CC(C)(O)[C@@H]1[C@H]2OC(=O)[C@@H]1[C@]1(O)C[C@H]3O[C@]34C(=O)O[C@H]2[C@]14C [Picrotoxin] | inactive: 3.26 |

| Compound | cell-cell fusion (z-score) |
| --- | --- |
| CCCCOc1cc(C(=O)NCCN(CC)CC)c2ccccc2n1.Cl | inactive: -0.12 |
| C[C@@]1(C2CCCC2)Cc2cc(OCC(=O)O)c(Cl)c(Cl)c2C1=O | inactive: 2.12 |
| S=C(NCc1ccc2c(c1)OCO2)N1CCN(c2ncnc3c2oc2ccccc23)CC1 [Amuvatinib (MP-470)] | inactive: 0.701 |
| CCOC(=O)n1ccn(C)c1=S | inactive: 3.49 |
| O=C(O)CCc1ccc(NCc2cccc(Oc3ccccc3)c2)cc1 | inactive: 0.494 |
| CC(S)C(=O)NCC(=O)O (stereo not given) | inactive: 1.75 |
| CC(C)(Oc1ccc(C2CC2(Cl)Cl)cc1)C(=O)O (stereo not given) | inactive: 1.62 |
| CC(C)(Oc1ccc(C2CC2(Cl)Cl)cc1)C(=O)O (stereo not given) [Ciprofibrate] | inactive: 0.483 |
| O=c1[nH]c(=O)n([C@H]2C[C@H](O)[C@@H](CO)O2)cc1Br [5-Bromo-2'-deoxyuridine] | inactive: 2.27 |
| C=C(C)[C@@H]1CC[C@]2(C)CC[C@]3(C)[C@@H](CCC4[C@@]5(C)CC[C@H](OC(C)=O)C(C)(C)C5CC[C@]43C)C12 (stereo not given in full) | inactive: 2.18 |
| CC1(C)S[C@@H]2[C@H](NC(=O)[C@H](NC(=O)N3CCNC3=O)c3ccccc3)C(=O)N2C1C(=O)[O-].[Na+] (stereo not given in full) | inactive: 3.65 |
| COc1ccc2nc(S(=O)Cc3ncc(C)c(OC)c3C)[nH]c2c1 (stereo not given) [Omeprazole] | inactive: 1.92 |
| Cc1ccccc1N1CCN(CCc2nnc3n2CCCC3)CC1.Cl [Dapiprazole Hydrochloride] | inactive: 1.1 |
| CC(C)c1ccc(CC(=O)N2CCC[C@@H](c3cccc(OC(C)(C)C(=O)[O-])c3)C2)cc1.[Na+] | inactive: 0.806 |
| Cc1cc(O)cc(O)c1C(=O)O | inactive: 3.2 |
| N=C(N)NC(=N)Nc1ccccc1 [1-Phenylbiguanide] | inactive: 2.23 |
| Cl.N=C(N)N [Guanidine hydrochloride] | inactive: 3.48 |
| CCOC(=O)N[C@@H]1CC[C@@H]2[C@@H](C1)C[C@H]1C(=O)O[C@H](C)[C@H]1[C@H]2/C=C/c1ccc(-c2cccc(F)c2)cn1 [Vorapaxar] | active: -6.15 |
| Cn1cc(-c2[nH]c3cc(NC(=O)[C@H](N)C4CCCCC4)cc4c3c2C=NNC4=O)cn1 | active: -10.7 |
| Cl.Cl.Cn1cnc(CCN)c1 [1-Methylhistamine dihydrochloride] | inactive: 2 |
| CCOc1ccn(-c2ccc(F)cc2)c(=O)c1C(=O)Nc1ccc(Oc2ccnc(N)c2Cl)c(F)c1 | inactive: 1.1 and inactive: 1.54 |
| CO[C@H]1/C=C\C=C(\C)C(=O)NC2=CC(=O)C(NCCN(C)C)=C(C[C@@H](C)C[C@H](OC)[C@H](O)[C@@H](C)/C=C(\C)[C@@H]1OC(N)=O)C2=O.Cl [17-DMAG HCl (Alvespimycin)] | inactive: 2.07 |
| COc1ccc(C(C)=O)c(O)c1 | inactive: 4.05 |
| CCCCC[C@H](CC(=O)O)C(=O)O | inactive: 1.96 |
| CCCCC(CC)CCC(CC(C)C)OS(=O)(=O)[O-].[Na+] (stereo not given) | inactive: 1.28 |

| Compound | cell-cell fusion (z-score) |
| --- | --- |
| CCC(C)(C)c1ccc(CC(C)CN2C[C@@H](C)O[C@@H](C)C2)cc1.Cl (stereo not given in full) | inactive: 5.34 |
| O=C1C=CC(=O)c2ccccc21 | inactive: 0.394 |
| O=C(CNC(=O)c1ccc(Cl)cc1)NO | inactive: -0.0478 |
| CCCn1c(=O)c2[nH]c(C3CCCC3)nc2n(CCC)c1=O [8-Cyclopentyl-1,3-dipropylxanthine] | inactive: 3.46 |
| CCOC(=O)c1ncn2c1CN(C)C(=O)c1cc(F)ccc1-2 | inactive: 1.62 |
| CSc1ccccc1N1CCN(CCCCCC(=O)NC2CCCc3ccccc32)CC1.Cl (stereo not given) | inactive: 2.82 |
| CC1(C)S[C@@H]2[C@H](NC(=O)Cc3ccccc3)C(=O)N2[C@H]1C(=O)[O-].[Na+] [Penicillin G sodium salt] | inactive: 3.48 |
| COc1cc2c(c3ccccc13)OC(C)(C)C=C2 | inactive: 1.12 |
| C#Cc1cccc(Nc2ncnc3cc(OCCOC)c(OCCO)cc23)c1.Cl | inactive: 0.142 |
| CCCCc1ccc(C(=O)O)nc1 [Fusaric acid] | inactive: 2.11 |
| Nc1ncnc2c1c(-c1cccc(OCc3ccccc3)c1)cn2[C@H]1C[C@@H](CN2CCC2)C1 | active: -9.58 |
| CC(=O)Nc1nnc(S(N)(=O)=O)s1 | inactive: 0.875 |
| CC(=O)Nc1nnc(S(N)(=O)=O)s1 [Acetazolamide] | inactive: 1.27 |
| Oc1ccc(-c2nc(-c3ccc(F)cc3)c(-c3ccncc3)[nH]2)cc1 | inactive: 0.442 |
| CC(=O)c1c(C)c2cnc(Nc3ccc(N4CCNCC4)cn3)nc2n(C2CCCC2)c1=O.O=S(=O)(O)CCO [Palbociclib Isethionate] | inactive: -1.46 |
| C#CCN(C)CCCOc1ccc(Cl)cc1Cl.Cl [Clorgyline hydrochloride] | inactive: 2.89 |
| CCNC1CN(CCCOC)S(=O)(=O)c2sc(S(N)(=O)=O)cc21 (stereo not given) | inactive: 1.78 |
| C#C[C@@]1(O)CC[C@@H]2[C@H]3CCC4=CC(=O)CC[C@H]4[C@@H]3CC[C@]21CC.C#C[C@]1(O)CC[C@H]2[C@@H]3CCC4=CC(=O)CC[C@@H]4[C@H]3CC[C@@]21CC [Norgestrel] | inactive: 3.09 |
| CC(=O)OC1CC2CCC1(C)C2(C)C (stereo not given) | inactive: 2.43 |
| Cc1c(S(=O)(=O)[O-])oc2c1C(=O)C(=O)c1c-2ccc2c1CCCC2(C)C.[Na+] | inactive: 1.26 |
| Cl.c1ccc2cc(CC3=NCCN3)ccc2c1 [Naphazoline hydrochloride] | inactive: 2.99 |
| CCCn1c(=O)c2nc(C3CCCC3)[nH]c2n(CCC)c1=O | inactive: 2.74 |
| CCCCc1oc2ccccc2c1C(=O)c1cc(I)c(OCCN(CC)CC)c(I)c1.Cl [Amiodarone hydrochloride] | inactive: 0.862 |
| O=C(O)C1CCCNC1 (racemic) [(±)-Nipecotic acid] | inactive: 1.25 |
| Cl.NC1CCN(c2c(F)cc3c(=O)c(C(=O)O)cn(C4CC4)c3c2Cl)C1 (stereo not given) | inactive: 1.27 |

A few values from the entries so far.
Entry of CC(=O)c1c(C)c2cnc(Nc3ccc(N4CCNCC4)cn3)nc2n(C2CCCC2)c1=O.O=S(=O)(O)CCO [Palbociclib Isethionate] under cell-cell fusion (z-score): inactive: -1.46
Entry of CC(=O)Nc1nnc(S(N)(=O)=O)s1 under cell-cell fusion (z-score): inactive: 0.875
Entry of Cc1c(S(=O)(=O)[O-])oc2c1C(=O)C(=O)c1c-2ccc2c1CCCC2(C)C.[Na+] under cell-cell fusion (z-score): inactive: 1.26
